Reference: patent US20250340591A1 (ANYGEN CO., LTD., priority 2021, published 2025)

Experiment: general procedure: Fmoc solid-phase peptide synthesis; trityl resin; Fmoc-Tyr-wang resin
Settings: whole synthesis

Point of comparison: “N6-octanoyl-N2-(Nt-trityl-L-histidylglycyl-L-seryl)-L-lysyl-L-phenylalanyl-L-tyrosine”, “purity (crude or final not stated)” value 95.9%. Against it:
- (6S,9S,12S,15S,18S)-1-amino-6-(((S)-1-amino-1-oxo-3-phenylpropan-2-yl)carbamoyl)-18-((S)-2-((S)-2-((S)-2-amino-3-(1-trityl-1H-imidazol-4-yl)propanamido)-3-phenylpropanamido)-3-(4-hydroxyphenyl)propanamido)-12,15-bis(3-amino-3-oxopropyl)-1-imino-9-methyl-8,11,14,17-tetraoxo-2,7,10,13,16-pentaazaicosan-20-oic acid — higher, 96.6%
- ((2R)-2-((2S)-2-((2S)-2-amino-3-(1-((2,4-difluorophenyl)(phenyl)methyl)-1H-imidazol-4-yl)propanamido)-6-octanamidohexanamido)-3-(p-tolyl)propanoyl)-L-tyrosine — lower, 90.4%
- ((R)-2-((S)-2-((S)-2-amino-3-(1-phenyl-1H-imidazol-4-yl)propanamido)-6-octanamidohexanamido)-3-(p-tolyl)propanoyl)-L-tyrosine — lower, 90.3%
- ((R)-2-((S)-2-((S)-2-amino-3-(2-(thiophen-2-yl)-1H-imidazol-4-yl)propanamido)-6-octanamidohexanamido)-3-(p-tolyl)propanoyl)-L-tyrosine — higher, 96.6%
- (S)-2-((2S,5S,8S,11S)-2-((1H-imidazol-4-yl)methyl)-11-((S)-2-amino-3-(1-trityl-1H-imidazol-4-yl)propanamido)-8-benzyl-5-(4-hydroxybenzyl)-4,7,10,17-tetraoxo-3,6,9,16-tetraazatetracosanamido)-N1-((S)-5-amino-1-(((S)-1-(((S)-1-(((S)-1-amino-1-oxo-3-phenylpropan-2-yl)amino)-5-guanidino-1-oxopentan-2-yl)amino)-1-oxopropan-2-yl)amino)-1,5-dioxopentan-2-yl)pentanediamide — lower, 87.0%
- (S)-2-((R)-2-((S)-2-((S)-2-amino-3-(1-benzhydryl-1H-imidazol-4-yl)propanamido)-6-octanamidohexanamido)-3-(p-tolyl)propanamido)-3-(4-(sulfooxy)phenyl)propanoic acid — lower, 93.9%
- (S)-N1-((S)-1-(((S)-1-(((S)-1-amino-1-oxo-3-phenylpropan-2-yl)amino)-5-guanidino-1-oxopentan-2-yl)amino)-1-oxopropan-2-yl)-2-((2S,5S,8S,11S,14S)-2-(2-amino-2-oxoethyl)-14-((S)-2-amino-3-(1-trityl-1H-imidazol-4-yl)propanamido)-5-(3-amino-3-oxopropyl)-11-benzyl-8-(4-hydroxybenzyl)-4,7,10,13,20-pentaoxo-3,6,9,12,19-pentaazaheptacosanamido)pentanediamide — lower, 88.5%
- His(4-methylbenzhydryl)-Lys(caprylic)-Phe-Tyr — lower, 94.2%
- His(4-methyltrityl)-Lys(caprylic)-Phe-Tyr — lower, 86.4%
- His(DAMP-3)-Lys(caprylic)-Phe-Tyr — lower, 95.2%
- His(adamatan-1-yl)-Lys(caprylic)-Phe-Tyr — lower, 69.7%
- His(benzyl)-Lys(caprylic)-Phe-Tyr — lower, 93.5%
- His(trt)-Lys(lauric)-Phe-Tyr — lower, 95.2%
- N2-(Nt-benzhydryl-L-histidyl)-N6-octanoyl-L-lysine — lower, 95.2%
- N6-octanoyl-N2-(Nt-trityl-L-histidyl)-L-lysyl-L-phenylalanyl-L-serine — lower, 88.9%
- N6-octanoyl-N2-(Nt-trityl-L-histidyl)-L-lysyl-L-phenylalanyl-L-tyrosyl-L-tryptophan — lower, 94.2%
- N6-octanoyl-N2-(Nt-trityl-L-histidyl)-L-lysyl-L-tyrosyl-L-tyrosine — higher, 98.0%
- N-((S)-5-((S)-2-amino-3-(1-benzhydryl-1H-imidazol-4-yl)propanamido)-6-(((R)-1-(((S)-1-amino-3-(4-hydroxyphenyl)-1-oxopropan-2-yl)amino)-1-oxo-3-(p-tolyl)propan-2-yl)amino)-6-oxohexyl)octanamide — lower, 95.2%
- d-His(trt)-Lys(caprylic)-Phe-Tyr — lower, 92.0%
- d-His(trt)-Lys(caprylic)-d-Phe(4-Cl)-d-Tyr — higher, 96.6%

Experiment: peptide synthesis
Settings: whole synthesis

For “His(2-naphthalen-1-methyl)-Lys(caprylic)-Phe-Tyr (HKFY)”, the “purity (crude or final not stated)” value was 98.5%.
